Experimental data as given in US8344173 (dated 2013).

Assay: peptide synthesis
Settings: conjugation step

Row | Substance | conjugation yield [%]
1 | tris(methoxypolyethylene glycol350)tris[carbobenzyloxylysyl-glutamylbis(diethylglutamate)]cyclotriphosphazene | 68
2 | tris(methoxypolyethylene glycol350)tris[carbobenzyloxylysyl-aspartylbis(diethylaspartate)]cyclotriphosphazene | 76
3 | tris(methoxypolyethylene glycol750)tris[carbobenzyloxylysyl-aminomalonylbis(diethylmalonate)]cyclotriphosphazene | 62
4 | tris(methoxypolyethylene glycol750)tris[carbobenzyloxylysyl-glutamylbis(diethylglutamate)]cyclotriphosphazene | 60
5 | tris(methoxypolyethylene glycol550)tris[carbobenzyloxylysyl-aminomalonylbis(diethylmalonate)]cyclotriphosphazene | 68
6 | tris(methoxypolyethylene glycol750)tris[carbobenzyloxylysyl-aspartylbis(diethylaspartate)]cyclotriphosphazene | 51
7 | tris(methoxypolyethylene glycol350)tris[carbobenzyloxylysyl-aminomalonylbis(diethylmalonate)]cyclotriphosphazene | 71
8 | tris(methoxypolyethylene glycol550)tris[carbobenzyloxylysyl-aspartylbis(diethylaspartate)]cyclotriphosphazene | 62
9 | tris(methoxypolyethylene glycol550)tris[carbobenzyloxylysyl-glutamylbis(diethylglutamate)]cyclotriphosphazene | 58
